Results from patent publication CN112062851A.
No constants are given. Whether binding was seen depends on the method and setting. Some results given as binding are weak or reduced against the parent protein; the word gives no strength.

By UniProt entry, the sequences of proteins in these tests, tags left out. Residues count along the entry.
UniProt Q02223, residues 1-54: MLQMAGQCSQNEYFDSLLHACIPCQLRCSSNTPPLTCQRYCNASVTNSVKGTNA

Assays:
[1] = target: RD103A CAR (靶向BCMA的嵌合抗原受体); experiment: flow cytometry on 103A CAR-T cells
[2] = target: RD103A CAR (靶向BCMA的嵌合抗原受体); experiment: flow cytometry on Jurkat-103A scFv cells, FITC-BCMA 1:100

## FITC-BCMA抗原 (ACRObiosystems, BCA-HF254) (from UniProt Q02223 1-54) (receptor)
[1]
  binding: binds
[2]
  binding: binds
